The other results are listed elsewhere or left out.

Chains of the proteins cited; added tags and fusions are not shown. Lines headed by an entry give the natural chain unless they say otherwise; changes in a name come on top.
UniProt Q96QU8: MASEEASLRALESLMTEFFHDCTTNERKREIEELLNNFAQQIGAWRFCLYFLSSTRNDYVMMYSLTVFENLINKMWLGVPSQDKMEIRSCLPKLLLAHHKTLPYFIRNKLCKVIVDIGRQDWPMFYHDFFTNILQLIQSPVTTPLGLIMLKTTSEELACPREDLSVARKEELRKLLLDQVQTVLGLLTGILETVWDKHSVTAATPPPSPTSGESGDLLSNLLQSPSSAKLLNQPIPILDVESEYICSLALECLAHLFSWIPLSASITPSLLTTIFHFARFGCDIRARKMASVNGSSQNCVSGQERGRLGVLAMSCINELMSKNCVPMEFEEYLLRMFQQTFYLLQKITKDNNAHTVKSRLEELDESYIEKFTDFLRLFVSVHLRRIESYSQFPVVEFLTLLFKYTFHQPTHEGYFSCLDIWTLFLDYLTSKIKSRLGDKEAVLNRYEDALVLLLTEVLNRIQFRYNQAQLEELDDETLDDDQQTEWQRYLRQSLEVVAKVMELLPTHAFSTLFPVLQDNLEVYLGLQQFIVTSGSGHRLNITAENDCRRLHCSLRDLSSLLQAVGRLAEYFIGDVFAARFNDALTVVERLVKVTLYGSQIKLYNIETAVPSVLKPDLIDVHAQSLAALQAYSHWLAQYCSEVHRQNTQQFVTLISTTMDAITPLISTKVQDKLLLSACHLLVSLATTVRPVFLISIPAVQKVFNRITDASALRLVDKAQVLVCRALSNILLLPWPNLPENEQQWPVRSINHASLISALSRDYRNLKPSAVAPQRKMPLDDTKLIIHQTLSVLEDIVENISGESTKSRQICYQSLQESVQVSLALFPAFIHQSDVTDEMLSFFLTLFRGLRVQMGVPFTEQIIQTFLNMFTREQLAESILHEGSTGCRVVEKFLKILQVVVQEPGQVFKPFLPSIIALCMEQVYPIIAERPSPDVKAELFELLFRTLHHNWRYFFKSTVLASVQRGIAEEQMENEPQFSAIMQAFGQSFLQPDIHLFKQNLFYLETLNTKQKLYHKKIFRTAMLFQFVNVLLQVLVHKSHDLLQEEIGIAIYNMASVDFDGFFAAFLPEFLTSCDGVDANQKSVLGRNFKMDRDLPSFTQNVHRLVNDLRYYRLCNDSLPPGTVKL
UniProt Q9HAV4: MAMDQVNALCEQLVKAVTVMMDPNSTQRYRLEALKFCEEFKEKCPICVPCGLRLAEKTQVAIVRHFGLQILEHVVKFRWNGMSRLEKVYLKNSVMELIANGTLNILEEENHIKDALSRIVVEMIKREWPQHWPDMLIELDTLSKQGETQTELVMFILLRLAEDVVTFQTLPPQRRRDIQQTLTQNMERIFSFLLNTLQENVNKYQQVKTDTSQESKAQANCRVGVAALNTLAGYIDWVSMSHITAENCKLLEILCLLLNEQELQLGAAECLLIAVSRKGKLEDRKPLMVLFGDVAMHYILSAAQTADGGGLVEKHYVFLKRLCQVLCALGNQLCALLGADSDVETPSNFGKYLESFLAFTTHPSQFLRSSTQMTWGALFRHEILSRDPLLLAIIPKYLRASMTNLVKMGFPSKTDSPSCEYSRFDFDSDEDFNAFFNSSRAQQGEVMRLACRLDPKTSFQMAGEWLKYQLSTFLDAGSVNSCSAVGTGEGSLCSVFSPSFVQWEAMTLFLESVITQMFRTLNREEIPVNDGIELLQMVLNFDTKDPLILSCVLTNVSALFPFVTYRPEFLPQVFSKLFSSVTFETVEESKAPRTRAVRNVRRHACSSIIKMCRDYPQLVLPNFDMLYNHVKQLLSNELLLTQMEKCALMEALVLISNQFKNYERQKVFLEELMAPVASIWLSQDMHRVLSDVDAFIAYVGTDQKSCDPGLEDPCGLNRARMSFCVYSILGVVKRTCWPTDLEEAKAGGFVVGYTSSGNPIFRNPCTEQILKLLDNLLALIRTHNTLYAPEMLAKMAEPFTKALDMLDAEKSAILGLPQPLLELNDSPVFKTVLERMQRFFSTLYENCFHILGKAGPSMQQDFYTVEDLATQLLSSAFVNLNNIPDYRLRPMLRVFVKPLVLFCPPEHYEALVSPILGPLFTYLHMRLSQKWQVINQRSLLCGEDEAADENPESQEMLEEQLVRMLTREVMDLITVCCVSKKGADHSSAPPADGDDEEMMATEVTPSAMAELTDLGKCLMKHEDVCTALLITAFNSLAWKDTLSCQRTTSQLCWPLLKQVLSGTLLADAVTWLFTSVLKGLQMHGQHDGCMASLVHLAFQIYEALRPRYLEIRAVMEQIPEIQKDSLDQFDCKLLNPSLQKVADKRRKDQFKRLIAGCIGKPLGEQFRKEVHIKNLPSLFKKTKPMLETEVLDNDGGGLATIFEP
UniProt P63104: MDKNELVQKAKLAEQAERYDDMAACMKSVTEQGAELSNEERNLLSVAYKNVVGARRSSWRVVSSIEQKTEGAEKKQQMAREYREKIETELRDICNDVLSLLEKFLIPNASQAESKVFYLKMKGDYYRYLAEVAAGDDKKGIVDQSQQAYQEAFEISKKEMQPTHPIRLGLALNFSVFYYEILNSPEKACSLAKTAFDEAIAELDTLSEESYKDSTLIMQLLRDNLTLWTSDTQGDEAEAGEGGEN
UniProt O76080: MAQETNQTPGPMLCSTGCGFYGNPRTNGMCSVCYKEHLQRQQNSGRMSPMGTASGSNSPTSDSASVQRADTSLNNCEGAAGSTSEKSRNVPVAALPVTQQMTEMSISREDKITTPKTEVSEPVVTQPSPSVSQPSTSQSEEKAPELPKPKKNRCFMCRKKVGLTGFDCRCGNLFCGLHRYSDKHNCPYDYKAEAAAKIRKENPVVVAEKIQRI
UniProt Q8TCF1: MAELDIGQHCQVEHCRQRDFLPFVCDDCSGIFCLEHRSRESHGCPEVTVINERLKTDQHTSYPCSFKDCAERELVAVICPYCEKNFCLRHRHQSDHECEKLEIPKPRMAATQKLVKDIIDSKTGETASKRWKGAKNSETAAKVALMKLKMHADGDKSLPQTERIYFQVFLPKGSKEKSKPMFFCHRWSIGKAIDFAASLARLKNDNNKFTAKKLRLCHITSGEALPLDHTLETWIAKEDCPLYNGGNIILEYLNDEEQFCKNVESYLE
UniProt Q96H79: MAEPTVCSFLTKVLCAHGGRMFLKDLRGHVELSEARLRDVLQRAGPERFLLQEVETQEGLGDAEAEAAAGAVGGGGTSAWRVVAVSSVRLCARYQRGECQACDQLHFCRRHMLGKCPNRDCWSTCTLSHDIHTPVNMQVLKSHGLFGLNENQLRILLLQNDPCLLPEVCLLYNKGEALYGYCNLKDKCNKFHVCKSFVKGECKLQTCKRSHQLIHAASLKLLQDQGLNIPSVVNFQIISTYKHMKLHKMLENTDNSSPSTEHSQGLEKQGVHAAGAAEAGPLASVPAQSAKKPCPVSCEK
UniProt Q6PJT7: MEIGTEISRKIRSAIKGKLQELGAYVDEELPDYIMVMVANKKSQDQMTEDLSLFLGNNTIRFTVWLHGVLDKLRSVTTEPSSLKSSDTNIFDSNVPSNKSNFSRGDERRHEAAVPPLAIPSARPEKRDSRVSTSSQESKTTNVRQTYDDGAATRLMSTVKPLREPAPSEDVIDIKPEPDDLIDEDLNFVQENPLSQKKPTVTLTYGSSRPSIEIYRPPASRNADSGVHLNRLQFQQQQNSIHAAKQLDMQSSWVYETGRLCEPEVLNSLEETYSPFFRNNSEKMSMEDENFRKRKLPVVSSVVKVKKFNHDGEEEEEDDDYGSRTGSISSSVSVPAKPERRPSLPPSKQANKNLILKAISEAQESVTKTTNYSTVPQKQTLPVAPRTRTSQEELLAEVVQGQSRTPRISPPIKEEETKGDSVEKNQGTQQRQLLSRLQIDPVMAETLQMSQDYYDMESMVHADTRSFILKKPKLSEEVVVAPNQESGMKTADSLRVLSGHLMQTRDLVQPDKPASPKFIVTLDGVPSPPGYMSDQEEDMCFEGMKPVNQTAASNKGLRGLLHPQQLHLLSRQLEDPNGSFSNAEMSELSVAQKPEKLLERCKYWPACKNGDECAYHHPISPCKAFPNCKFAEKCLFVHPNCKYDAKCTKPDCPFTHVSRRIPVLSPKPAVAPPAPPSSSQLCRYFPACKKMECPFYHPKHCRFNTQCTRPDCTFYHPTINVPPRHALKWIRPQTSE
UniProt Q86WB0: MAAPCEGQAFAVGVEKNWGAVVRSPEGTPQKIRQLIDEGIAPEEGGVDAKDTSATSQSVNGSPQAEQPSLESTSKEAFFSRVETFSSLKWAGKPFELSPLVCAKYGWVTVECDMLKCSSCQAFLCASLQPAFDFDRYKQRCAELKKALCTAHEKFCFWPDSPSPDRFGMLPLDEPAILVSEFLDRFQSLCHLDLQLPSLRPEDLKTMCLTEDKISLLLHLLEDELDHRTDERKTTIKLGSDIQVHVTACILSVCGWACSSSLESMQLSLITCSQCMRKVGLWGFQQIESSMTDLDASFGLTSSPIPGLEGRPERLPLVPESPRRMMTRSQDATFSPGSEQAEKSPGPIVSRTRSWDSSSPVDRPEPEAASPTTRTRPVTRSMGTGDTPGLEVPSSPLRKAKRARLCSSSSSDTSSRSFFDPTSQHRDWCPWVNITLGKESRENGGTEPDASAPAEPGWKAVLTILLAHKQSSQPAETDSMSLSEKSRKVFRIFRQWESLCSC
UniProt O15156: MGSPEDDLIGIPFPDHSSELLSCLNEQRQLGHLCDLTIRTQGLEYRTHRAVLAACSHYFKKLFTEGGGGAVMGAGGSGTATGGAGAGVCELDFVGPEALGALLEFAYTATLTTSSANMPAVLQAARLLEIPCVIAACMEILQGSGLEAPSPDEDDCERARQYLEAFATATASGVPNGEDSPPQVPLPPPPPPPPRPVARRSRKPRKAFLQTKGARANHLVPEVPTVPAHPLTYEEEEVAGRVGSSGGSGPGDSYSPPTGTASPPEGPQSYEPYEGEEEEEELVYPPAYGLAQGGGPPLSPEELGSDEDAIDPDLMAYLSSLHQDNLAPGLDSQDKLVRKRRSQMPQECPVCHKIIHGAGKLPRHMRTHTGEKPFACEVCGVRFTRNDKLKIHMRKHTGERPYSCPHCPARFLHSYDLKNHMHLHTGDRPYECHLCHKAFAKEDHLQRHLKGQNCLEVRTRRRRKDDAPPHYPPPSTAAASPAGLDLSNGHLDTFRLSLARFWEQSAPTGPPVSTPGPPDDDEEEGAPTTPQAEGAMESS
UniProt Q9UIA9: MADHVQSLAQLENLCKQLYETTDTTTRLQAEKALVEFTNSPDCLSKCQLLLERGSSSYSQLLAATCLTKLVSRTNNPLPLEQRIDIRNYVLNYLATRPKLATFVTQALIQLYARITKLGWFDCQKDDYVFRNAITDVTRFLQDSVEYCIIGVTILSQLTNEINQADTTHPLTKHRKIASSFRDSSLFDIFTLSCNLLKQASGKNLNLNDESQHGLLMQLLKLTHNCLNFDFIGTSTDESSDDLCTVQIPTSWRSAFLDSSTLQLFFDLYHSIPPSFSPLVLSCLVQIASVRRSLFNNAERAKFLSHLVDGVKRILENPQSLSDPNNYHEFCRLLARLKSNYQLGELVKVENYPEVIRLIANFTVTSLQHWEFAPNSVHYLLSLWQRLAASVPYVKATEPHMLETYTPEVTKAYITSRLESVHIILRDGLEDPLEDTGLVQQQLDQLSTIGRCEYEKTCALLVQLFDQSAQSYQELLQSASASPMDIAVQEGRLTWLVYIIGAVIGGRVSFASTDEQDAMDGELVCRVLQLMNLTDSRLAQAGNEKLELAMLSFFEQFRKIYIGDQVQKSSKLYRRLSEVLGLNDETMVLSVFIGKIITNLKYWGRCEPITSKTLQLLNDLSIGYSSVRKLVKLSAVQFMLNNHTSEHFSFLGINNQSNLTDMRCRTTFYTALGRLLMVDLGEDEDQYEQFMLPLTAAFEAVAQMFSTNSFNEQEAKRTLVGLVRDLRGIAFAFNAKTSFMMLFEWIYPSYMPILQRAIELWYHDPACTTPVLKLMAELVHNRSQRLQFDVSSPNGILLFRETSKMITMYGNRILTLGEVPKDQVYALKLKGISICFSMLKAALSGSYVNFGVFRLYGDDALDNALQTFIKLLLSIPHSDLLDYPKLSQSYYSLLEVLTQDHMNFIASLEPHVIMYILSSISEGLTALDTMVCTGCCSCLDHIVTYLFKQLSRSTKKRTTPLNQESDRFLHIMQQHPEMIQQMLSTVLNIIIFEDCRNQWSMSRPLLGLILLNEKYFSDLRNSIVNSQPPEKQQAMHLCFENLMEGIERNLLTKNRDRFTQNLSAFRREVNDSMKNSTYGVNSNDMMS

The values below come from the supplement of paper PMC12067093, “Discovery and optimisation of a covalent ligand for TRIM25 and its application to targeted protein ubiquitination” (Chemical Science, 2025).

Compound in this experiment: Cc1cc(ccc1-c1ccccc1)C(=O)N1CCCN(CC1)C(=O)CCl [compound 10]
Nature of the experiment: probe-labelled cysteine peptide fold change vs DMSO (competition) (log2 fold change); higher = less target engagement (more negative = stronger competition). Conditions: THP-1, incubation time: 4 h.
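Also: competitive profiling in live THP-1 cells: cysteine peptides tagged with an iodoacetamide desthiobiotin (IA-DTB) probe, intensity after compound treatment relative to DMSO-treated cells.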

Turning to “XPO6_Q96QU8_547_LNITAENDCR (UniProt Q96QU8)”, the “probe-labelled cysteine peptide fold change” value reads like this: (10 µM) 0.114; (50 µM) -0.0152.
The matching figures for “XPO5_Q9HAV4_736_TCWPTDLEEAK (UniProt Q9HAV4)”: -0.0481 and 0.117.
The corresponding values for “XRCC1_P18887_132_IVCSQPYSK (UniProt P18887)” are -0.0642 and -0.124.
Take “YWHAZ_P63104_25_YDDMAACMK (UniProt P63104)”: the “probe-labelled cysteine peptide fold change” value is -0.0429 (10 µM) and -0.13 (50 µM).
The matching figures for “ZFAND5_O76080_170+175_CGNLFCGLHR (UniProt O76080)”: 0.321 and -0.292.
The corresponding values for “ZBTB11_O95625_796_HLGVKPFQCQFCDK (UniProt O95625)” are 0.085 and -0.175.
The corresponding values for “ZFAND1_Q8TCF1_217_LCHITSGEALPLDHTLETWIAK (UniProt Q8TCF1)” are 0.0314 and -0.335.
On to “ZC3HAV1L_Q96H79_108_GECQACDQLHFCR (UniProt Q96H79)”, for which the “probe-labelled cysteine peptide fold change” value is, setting by setting: (10 µM) -0.0102; (50 µM) 0.0578.
The matching figures for “ZC3H14_Q6PJT7_634_CLFVHPNCK (UniProt Q6PJT7)”: 0.165 and -0.196.
In the case of “ZC3HC1_Q86WB0_190_FQSLCHLDLQLPSLRPEDLK (UniProt Q86WB0)”, the “probe-labelled cysteine peptide fold change” value is, setting by setting: (10 µM) 0.314; (50 µM) 0.324.
The matching figures for “XPO5_Q9HAV4_706_SCDPGLEDPCGLNR (UniProt Q9HAV4)”: 0.112 and 0.0391.
The matching figures for “ZC3H11A_O75152_636_CAAQTLEK (UniProt O75152)”: -0.182 and -0.369.
The matching figures for “ZBTB7B_O15156_23_GSPEDDLIGIPFPDHSSELLSCLNEQR (UniProt O15156)”: -0.485 and 0.416.
In the case of “XPO7_Q9UIA9_525_VSFASTDEQDAMDGELVCR (UniProt Q9UIA9)”, the “probe-labelled cysteine peptide fold change” value runs as follows: (10 µM) 0.222; (50 µM) 0.32.
